Measured data: PubChem BioAssay AID1259254 (NCATS, 2017)

Purpose: 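Genome-wide screen for genes that prevent DNA re-replication in cancer cells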 (primary screen)
Cells: human HCT116 colorectal cancer cells
Reagent: single siRNA against human genes
Time to read-out: 3 days
Measured: 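Imaged Hoechst DNA stain sorts each cell into a cycle phase by DNA amount; per plate, G2 fraction set to 0% for non-targeting and 100% for GMNN siRNA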
Direction: G2 robust z-score: higher = more G2 cells, more excess DNA replication
Rule for the call: 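Active siRNAs have a G2 robust z of 5 or more median absolute deviations over the median, which in these data means about 38% or higher of GMNN control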
The deposit covers about 59,000 reagents; below is a part drawn at random. Over the whole deposit, about 1,550 (2.6%) were called active. 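G2 share is only a proxy for re-replication; each gene was hit by three separate siRNAs, and active genes were retested.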 Entries without a mark were called inactive. Reagents against one gene are numbered here. Further read-outs or replicates are left out here. The record does not give: the amount of reagent.

The first 3 entries as a preview:
{"target": "PHF14 (PHD finger protein 14)", "siRNA no.": 1, "G2 robust z-score": -0.306}
{"target": "PHF14 (PHD finger protein 14)", "siRNA no.": 2, "G2 robust z-score": -0.62}
{"target": "PHF14 (PHD finger protein 14)", "siRNA no.": 3, "G2 robust z-score": 0.0703}

Main list, repeating the preview:
{"target": "PHF14 (PHD finger protein 14)", "siRNA no.": 1, "G2 robust z-score": -0.306}
{"target": "PHF14 (PHD finger protein 14)", "siRNA no.": 2, "G2 robust z-score": -0.62}
{"target": "PHF14 (PHD finger protein 14)", "siRNA no.": 3, "G2 robust z-score": 0.0703}
{"target": "LACTBL1 (lactamase beta like 1)", "siRNA no.": 1, "G2 robust z-score": -0.305}
{"target": "LACTBL1 (lactamase beta like 1)", "siRNA no.": 2, "G2 robust z-score": -0.853}
{"target": "LACTBL1 (lactamase beta like 1)", "siRNA no.": 3, "G2 robust z-score": 3.42}
{"target": "CTSO (cathepsin O)", "siRNA no.": 1, "G2 robust z-score": 2.19}
{"target": "CTSO (cathepsin O)", "siRNA no.": 2, "G2 robust z-score": -0.73}
{"target": "CTSO (cathepsin O)", "siRNA no.": 3, "G2 robust z-score": -0.569}
{"target": "MARK2 (microtubule affinity regulating kinase 2)", "siRNA no.": 1, "G2 robust z-score": 0.057}
{"target": "MARK2 (microtubule affinity regulating kinase 2)", "siRNA no.": 2, "G2 robust z-score": 2.05}
{"target": "MARK2 (microtubule affinity regulating kinase 2)", "siRNA no.": 3, "G2 robust z-score": -0.77}
{"target": "THRB-AS1 (THRB antisense RNA 1)", "siRNA no.": 1, "G2 robust z-score": -0.8}
{"target": "THRB-AS1 (THRB antisense RNA 1)", "siRNA no.": 2, "G2 robust z-score": 0.98}
{"target": "THRB-AS1 (THRB antisense RNA 1)", "siRNA no.": 3, "G2 robust z-score": 0.165}
{"target": "CDC42EP4 (CDC42 effector protein 4)", "siRNA no.": 1, "G2 robust z-score": -0.0423}
{"target": "CDC42EP4 (CDC42 effector protein 4)", "siRNA no.": 2, "G2 robust z-score": -0.397}
{"target": "CDC42EP4 (CDC42 effector protein 4)", "siRNA no.": 3, "G2 robust z-score": -0.0761}
{"target": "PCDHGC3 (protocadherin gamma subfamily C, 3)", "siRNA no.": 1, "G2 robust z-score": -0.563}
{"target": "PCDHGC3 (protocadherin gamma subfamily C, 3)", "siRNA no.": 2, "G2 robust z-score": 1.25}
{"target": "PCDHGC3 (protocadherin gamma subfamily C, 3)", "siRNA no.": 3, "G2 robust z-score": 2.79}
{"target": "HUWE1", "siRNA no.": 1, "G2 robust z-score": -0.819}
{"target": "HUWE1", "siRNA no.": 2, "G2 robust z-score": -1.55}
{"target": "HUWE1", "siRNA no.": 3, "G2 robust z-score": -0.249}
